Experiment [1] concerns the target T1, FIN219/JAR1, endogenous in Arabidopsis seedlings (Arabidopsis thaliana (endogenous in seedlings)) (UniProt Q9SKE2).
T1 sequence: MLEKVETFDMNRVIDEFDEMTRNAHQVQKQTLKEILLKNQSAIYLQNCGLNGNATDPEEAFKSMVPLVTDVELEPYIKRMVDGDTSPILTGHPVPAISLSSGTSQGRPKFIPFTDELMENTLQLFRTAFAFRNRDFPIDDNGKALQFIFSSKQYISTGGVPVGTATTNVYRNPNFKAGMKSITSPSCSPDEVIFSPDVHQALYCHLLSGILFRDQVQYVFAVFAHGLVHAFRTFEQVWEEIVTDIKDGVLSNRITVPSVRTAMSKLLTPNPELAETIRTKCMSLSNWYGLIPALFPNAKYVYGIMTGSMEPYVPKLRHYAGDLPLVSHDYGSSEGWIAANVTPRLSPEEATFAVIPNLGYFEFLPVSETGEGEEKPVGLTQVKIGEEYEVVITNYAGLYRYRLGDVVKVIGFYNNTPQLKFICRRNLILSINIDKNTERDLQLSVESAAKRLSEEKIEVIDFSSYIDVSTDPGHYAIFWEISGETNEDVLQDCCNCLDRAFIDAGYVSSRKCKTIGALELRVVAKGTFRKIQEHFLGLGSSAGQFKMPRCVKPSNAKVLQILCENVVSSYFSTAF
In words: co-IP; 2 mg total protein of GUS-CCT1 transgenic or wild-type Col-0 seedlings grown in the dark or blue light with or without MeJA; precipitated with FIN219 monoclonal antibodies, 4°C 4 h; probed with GUS, COP1 or CRY1 polyclonal antibodies.

Protein sequences, listed by entry. Tags and fused reporters are not part of them.
UniProt Q43125: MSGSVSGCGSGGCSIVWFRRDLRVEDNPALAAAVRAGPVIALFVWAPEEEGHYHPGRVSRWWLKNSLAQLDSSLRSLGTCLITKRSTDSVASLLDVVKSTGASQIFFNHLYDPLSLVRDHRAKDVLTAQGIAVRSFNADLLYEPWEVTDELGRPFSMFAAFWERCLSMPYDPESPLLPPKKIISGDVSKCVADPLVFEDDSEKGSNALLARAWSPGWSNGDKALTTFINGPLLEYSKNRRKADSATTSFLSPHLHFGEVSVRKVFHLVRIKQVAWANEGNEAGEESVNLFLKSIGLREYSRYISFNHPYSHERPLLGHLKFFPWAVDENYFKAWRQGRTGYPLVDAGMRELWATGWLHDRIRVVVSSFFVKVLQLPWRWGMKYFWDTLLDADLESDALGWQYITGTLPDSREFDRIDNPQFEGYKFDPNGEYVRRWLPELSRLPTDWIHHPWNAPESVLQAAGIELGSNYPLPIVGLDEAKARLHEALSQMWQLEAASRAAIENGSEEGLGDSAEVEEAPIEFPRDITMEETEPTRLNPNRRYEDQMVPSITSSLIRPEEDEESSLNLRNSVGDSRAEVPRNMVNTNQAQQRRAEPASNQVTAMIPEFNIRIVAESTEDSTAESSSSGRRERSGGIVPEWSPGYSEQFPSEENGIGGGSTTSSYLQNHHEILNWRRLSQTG

Experiment [2] addresses T2, YC-FIN219 (full-length FIN219 in 35p-YFP-C84/pRTL2) (Arabidopsis thaliana) (UniProt Q9SKE2).
T2 sequence: T1 sequence
In words: split reporter; BiFC (YFP-N155 / YFP-C84) in Arabidopsis Col-0 mesophyll protoplasts in the dark, without or with 50 uM MeJA.

Experiment [3] deals with T2, YC-FIN219 (full-length FIN219 in 35p-YFP-C84/pRTL2) (Arabidopsis thaliana). In words: split reporter; BiFC (YFP-N155 / YFP-C84) in Arabidopsis Col-0 mesophyll protoplasts under blue light (2.2 umol m^-2 s^-1), without or with 50 uM MeJA.

In publication PMC5880400, “FIN219/JAR1 and cryptochrome1 antagonize each other to modulate photomorphogenesis under blue light in Arabidopsis” (PLoS Genetics, 2018) one finds binding data, which are given here for two substances.

Results are given in words; binding and its absence hold for the method and conditions named. In cells and extracts the contact can be indirect. Some entries that bind do so weakly or less than the wild type. For part of these data: Tags and fused reporters may be left off the sequences shown.

For “CRY1 (cryptochrome1), endogenous in wild-type Col-0 seedlings (from UniProt Q43125 1-681)”, the binding result in experiment [1] was “binds”.

For the substance “YN-CRY1 (full-length CRY1 in 35p-YFP-N155/pRTL2) (from UniProt Q43125 1-681)”, the binding result in experiment [2] was “no binding (condition: in the dark)”; in experiment [3], “binds”.
